Test results from doi:10.1101/2025.10.14.682297 (bioRxiv, 2025).
Read-outs that look alike come from different tables or passages of the source. These are yes or no findings as the source states them, for the method shown. Some entries that bind do so weakly or less than the wild type.

How the values were obtained:
[1] = biological target: human ZNFX1 (NFX1-type zinc finger-containing 1), full-length, 2xStrep-tagged, wild type (human) (UniProt Q9P2E3); test: cryo-EM structure
[2] = biological target: human ZNFX1 (NFX1-type zinc finger-containing 1), full-length, 2xStrep-tagged, wild type (human) (UniProt Q9P2E3); test: cryo-EM structure; remark: listed apart in the source

binding [1]: binds weakly
binding [2]: binds weakly
B1: human ZNFX1 (NFX1-type zinc finger-containing 1), full-length, 2xStrep-tagged, wild type (enzyme, UniProt Q9P2E3 1-1918, looked up)
chain: MEERRPHLDARPRNSHTNHRGPVDGELPPRARNQANNPPANALRGGASHPGRHPRANNHPAAYWQREERFRAMGRNPHQGRRNQEGHASDEARDQRHDQENDTRWRNGNQDCRNRRPPWSNDNFQQWRTPHQKPTEQPQQAKKLGYKFLESLLQKDPSEVVITLATSLGLKELLSHSSMKSNFLELICQVLRKACSSKMDRQSVLHVLGILKNSKFLKVCLPAYVVGMITEPIPDIRNQYPEHISNIISLLQDLVSVFPASSVQETSMLVSLLPTSLNALRASGVDIEEETEKNLEKVQTIIEHLQEKRREGTLRVDTYTLVQPEAEDHVESYRTMPIYPTYNEVHLDERPFLRPNIISGKYDSTAIYLDTHFRLLREDFVRPLREGILELLQSFEDQGLRKRKFDDIRIYFDTRIITPMCSSSGIVYKVQFDTKPLKFVRWQNSKRLLYGSLVCMSKDNFETFLFATVSNREQEDLCRGIVQLCFNEQSQQLLAEVQPSDSFLMVETTAYFEAYRHVLEGLQEVQEEDVPFQRNIVECNSHVKEPRYLLMGGRYDFTPLIENPSATGEFLRNVEGLRHPRINVLDPGQWPSKEALKLDDSQMEALQFALTRELAIIQGPPGTGKTYVGLKIVQALLTNESVWQISLQKFPILVVCYTNHALDQFLEGIYNCQKTSIVRVGGRSNSEILKQFTLRELRNKREFRRNLPMHLRRAYMSIMTQMKESEQELHEGAKTLECTMRGVLREQYLQKYISPQHWESLMNGPVQDSEWICFQHWKHSMMLEWLGLGVGSFTQSVSPAGPENTAQAEGDEEEEGEEESSLIEIAEEADLIQADRVIEEEEVVRPQRRKKEESGADQELAKMLLAMRLDHCGTGTAAGQEQATGEWQTQRNQKKKMKKRVKDELRKLNTMTAAEANEIEDVWQLDLSSRWQLYRLWLQLYQADTRRKILSYERQYRTSAERMAELRLQEDLHILKDAQVVGMTTTGAAKYRQILQKVEPRIVIVEEAAEVLEAHTIATLSKACQHLILIGDHQQLRPSANVYDLAKNFNLEVSLFERLVKVNIPFVRLNYQHRMCPEIARLLTPHIYQDLENHPSVLKYEKIKGVSSNLFFVEHNFPEQEIQEGKSHQNQHEAHFVVELCKYFLCQEYLPSQITILTTYTGQLFCLRKLMPAKTFAGVRVHVVDKYQGEENDIILLSLVRSNQEGKVGFLQISNRICVALSRAKKGMYCIGNMQMLAKVPLWSKIIHTLRENNQIGPMLRLCCQNHPETHTLVSKASDFQKVPEGGCSLPCEFRLGCGHVCTRACHPYDSSHKEFQCMKPCQKVICQEGHRCPLVCFQECQPCQVKVPKTIPRCGHEQMVPCSVPESDFCCQEPCSKSLRCGHRCSHPCGEDCVQLCSEMVTIKLKCGHSQPVKCGHVEGLLYGGLLVKCTTKCGTILDCGHPCPGSCHSCFEGRFHERCQQPCKRLLICSHKCQEPCIGECPPCQRTCQNRCVHSQCKKKCGELCSPCVEPCVWRCQHYQCTKLCSEPCNRPPCYVPCTKLLVCGHPCIGLCGEPCPKKCRICHMDEVTQIFFGFEDEPDARFVQLEDCSHIFEVQALDRYMNEQKDDEVAIRLKVCPICQVPIRKNLRYGTSIKQRLEEIEIIKEKIQGSAGEIATSQERLKALLERKSLLHQLLPEDFLMLKEKLAQKNLSVKDLGLVENYISFYDHLASLWDSLKKMHVLEEKRVRTRLEQVHEWLAKKRLSFTSQELSDLRSEIQRLTYLVNLLTRYKIAEKKVKDSIAVEVYSVQNILEKTCKFTQEDEQLVQEKMEALKATLPCSGLGISEEERVQIVSAIGYPRGHWFKCRNGHIYVIGDCGGAMERGTCPDCKEVIGGTNHTLERSNQLASEMDGAQHAAWSDTANNLMNFEEIQGMM
